# These are yes or no findings as the source states them, for the method shown. In cells and extracts the contact can be indirect. Binding calls can cover weak binding; strength is not graded here.
# The chains behind the UniProt entries cited, without tags or fusion partners. Where a name states a change or a piece, a line headed by the entry shows the natural chain unless it says otherwise. A line that says so, or that is headed by a name, gives the form on record, which may keep a tag or linker.
# Orb2A (Q9VSR3, form named): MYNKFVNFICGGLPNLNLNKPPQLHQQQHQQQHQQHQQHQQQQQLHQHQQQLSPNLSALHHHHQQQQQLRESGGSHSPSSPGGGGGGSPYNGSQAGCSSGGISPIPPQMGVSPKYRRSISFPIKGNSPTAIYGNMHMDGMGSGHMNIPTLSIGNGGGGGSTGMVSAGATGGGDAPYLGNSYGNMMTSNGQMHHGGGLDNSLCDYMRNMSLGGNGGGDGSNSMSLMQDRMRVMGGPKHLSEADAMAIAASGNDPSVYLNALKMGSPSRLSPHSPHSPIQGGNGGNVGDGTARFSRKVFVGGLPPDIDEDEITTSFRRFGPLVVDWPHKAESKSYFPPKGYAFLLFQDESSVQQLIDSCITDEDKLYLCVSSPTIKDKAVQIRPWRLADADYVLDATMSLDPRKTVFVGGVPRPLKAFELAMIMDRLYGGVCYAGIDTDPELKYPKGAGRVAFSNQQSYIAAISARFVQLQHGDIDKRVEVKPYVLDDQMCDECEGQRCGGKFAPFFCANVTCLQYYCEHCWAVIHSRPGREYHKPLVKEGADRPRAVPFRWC
# UniProt Q9VNW0: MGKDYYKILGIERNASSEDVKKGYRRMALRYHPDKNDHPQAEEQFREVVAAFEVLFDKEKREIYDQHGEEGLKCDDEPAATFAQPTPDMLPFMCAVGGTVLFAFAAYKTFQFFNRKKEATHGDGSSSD
# UniProt Q9VFV9: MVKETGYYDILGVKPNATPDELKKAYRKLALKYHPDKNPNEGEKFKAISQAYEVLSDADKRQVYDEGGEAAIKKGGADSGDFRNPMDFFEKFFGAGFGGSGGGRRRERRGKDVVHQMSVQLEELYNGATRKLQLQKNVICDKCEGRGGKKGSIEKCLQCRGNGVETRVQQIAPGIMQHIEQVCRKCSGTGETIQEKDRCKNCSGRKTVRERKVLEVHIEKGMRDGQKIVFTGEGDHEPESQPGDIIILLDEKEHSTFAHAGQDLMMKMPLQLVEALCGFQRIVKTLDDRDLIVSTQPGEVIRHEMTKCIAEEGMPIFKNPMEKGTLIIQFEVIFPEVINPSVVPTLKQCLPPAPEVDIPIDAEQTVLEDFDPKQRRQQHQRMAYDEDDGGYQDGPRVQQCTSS
# Target: Orb2A (Drosophila) (UniProt Q9VSR3)
# Test: co-IP
row,binding,Substance
1,binds,CG7130-HA (from UniProt Q9VNW0)
2,binds,DroJ2-HA (from UniProt Q9VFV9)

# — paper doi:10.1101/2022.10.16.512122
